This assay addresses T1, GFP-NS (green fluorescent protein tagged human nucleostemin) (human) (UniProt Q9BVP2).
T1 sequence: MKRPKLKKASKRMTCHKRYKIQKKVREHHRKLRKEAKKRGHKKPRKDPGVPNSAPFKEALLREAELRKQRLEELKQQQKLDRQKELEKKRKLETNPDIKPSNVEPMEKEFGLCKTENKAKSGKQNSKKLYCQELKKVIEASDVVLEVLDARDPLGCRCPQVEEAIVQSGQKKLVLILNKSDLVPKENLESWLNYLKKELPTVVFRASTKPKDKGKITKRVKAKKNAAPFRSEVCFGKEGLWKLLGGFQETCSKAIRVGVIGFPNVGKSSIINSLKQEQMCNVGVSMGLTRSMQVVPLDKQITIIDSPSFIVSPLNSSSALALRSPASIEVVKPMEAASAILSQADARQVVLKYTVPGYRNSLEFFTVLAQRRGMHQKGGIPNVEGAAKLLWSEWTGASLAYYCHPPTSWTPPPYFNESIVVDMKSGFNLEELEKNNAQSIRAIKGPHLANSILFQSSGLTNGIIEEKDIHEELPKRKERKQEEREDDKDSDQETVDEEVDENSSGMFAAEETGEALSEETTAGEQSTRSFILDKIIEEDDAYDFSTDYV
Kind of assay: co-IP; anti-GFP antibody, overnight at 4°C, protein A Plus agarose; lysates of MDA-MB-231 cells transfected with GFP or GFP-NS; immunoblot for GFP, mTOR, FAK and Akt.

Results are given in words; binding and its absence hold for the method and conditions named. Binding seen in cells or lysates may run through a third protein. Binding calls can cover weak binding; strength is not graded here. Sequences can lack the tags named with a protein.

Consider “Akt kinase (also known as protein kinase B) (human (endogenous in MDA-MB-231)) (enzyme)”, for which the binding result is reported as “binds”.

For the origin of these results see article PMC4407832.
